Reference: PubChem BioAssay AID1259405 (NCATS, 2018)

- Purpose: 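Knock-downs that lift recombinant protein yield in hamster ovary cells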 (primary screen)
- System: Chinese hamster CHO-K1 ovary cells with stable secreted eGFP expression
- Knock-down reagent: single siRNA against mouse genes, 0.8 pmol siRNA per well (2 µl of 400 nM stock)
- Duration: 3 days
- Read-out: 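Percent of the per-plate non-targeting control median for intracellular GFP per well by laser scanning cytometry and for cell viability by ATP luminescence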
- Reading the numbers: GFP, % of control: higher = more GFP per well, higher productivity; viability (ATP), % of control: higher = more viable cells (more ATP)
- Rule for the call: 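a knock-down is called active if GFP reaches 120% or more of non-targeting control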
The whole screen tested about 50,000 reagents; below is an unselected part. About 4,000 of all reagents (8%) count as active. 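Mouse siRNA library applied to hamster cells; one well for each siRNA.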 The numbers tell different reagents against one gene apart.

| Target gene | reagent | GFP, % of control | viability (ATP), % of control | Call |
| --- | --- | --- | --- | --- |
| Cd74 | 1 | 111 | 58.7 | inactive |
| Cd74 | 2 | 123 | 82.9 | active |
| Cd74 | 3 | 145 | 89.8 | active |
| Slc1a3 | 1 | 78.2 | 92.3 | inactive |
| Slc1a3 | 2 | 84 | 81 | inactive |
| Slc1a3 | 3 | 82.5 | 78.3 | inactive |
| Clcn7 | 1 | 56.1 | 97.8 | inactive |
| Clcn7 | 2 | 66.7 | 63.3 | inactive |
| Clcn7 | 3 | 100 | 59.4 | inactive |
| Slc52a3 | 1 | 65 | 78.5 | inactive |
| Slc52a3 | 2 | 55.6 | 84 | inactive |
| Slc52a3 | 3 | 54.7 | 68.6 | inactive |
| Atp6ap2 | 1 | 31 | 16.1 | inactive |
| Atp6ap2 | 2 | 113 | 124 | inactive |
| Atp6ap2 | 3 | 83.6 | 89.6 | inactive |
| Polr1e | 1 | 90.2 | 111 | inactive |
| Polr1e | 2 | 79.8 | 72.9 | inactive |
| Polr1e | 3 | 52.4 | 129 | inactive |
| Numbl | 1 | 84.1 | 63.5 | inactive |
| Numbl | 2 | 70.2 | 104 | inactive |
| Numbl | 3 | 93 | 74.4 | inactive |
| Ywhaq | 1 | 74.8 | 83.4 | inactive |
| Ywhaq | 2 | 55.9 | 63.2 | inactive |
| Ywhaq | 3 | 49.9 | 54.4 | inactive |
| Tjp1 | 1 | 51.8 | 58.3 | inactive |
| Tjp1 | 2 | 110 | 110 | inactive |
| Tjp1 | 3 | 100 | 144 | inactive |
| Pml | 1 | 50.2 | 70.2 | inactive |
| Pml | 2 | 93.9 | 82.2 | inactive |
| Pml | 3 | 36.8 | 57.5 | inactive |
| Tsku | 1 | 141 | 61.6 | active |
| Tsku | 2 | 75.1 | 80.3 | inactive |
| Tsku | 3 | 85.4 | 109 | inactive |
| A830019P07Rik | 1 | 76.4 | 53.2 | inactive |
| A830019P07Rik | 2 | 77.1 | 71.5 | inactive |
| A830019P07Rik | 3 | 60.9 | 78 | inactive |
| Emg1 | 1 | 62.3 | 59.3 | inactive |
| Emg1 | 2 | 98.4 | 105 | inactive |
| Emg1 | 3 | 59.2 | 42.6 | inactive |
| Il1a | 1 | 168 | 125 | active |
| Il1a | 2 | 94.7 | 78.7 | inactive |
| Pigyl | 1 | 111 | 96.7 | inactive |
| Pigyl | 2 | 92.4 | 75.8 | inactive |
| Pigyl | 3 | 69.5 | 89 | inactive |
| Or13f5 | 1 | 126 | 95.1 | active |
| Or13f5 | 2 | 105 | 75.7 | inactive |
| Or13f5 | 3 | 58.2 | 27.6 | inactive |
| Tsnax | 1 | 79.9 | 69 | inactive |
| Tsnax | 2 | 86.4 | 101 | inactive |
| Setd4 | 1 | 57.4 | 59.6 | inactive |
| Setd4 | 2 | 163 | 96.3 | active |
| Setd4 | 3 | 65.5 | 83.1 | inactive |
| Susd6 | 1 | 73 | 57.3 | inactive |
| Susd6 | 2 | 56.7 | 86.3 | inactive |
| Susd6 | 3 | 81.4 | 88.7 | inactive |
| Gm5148 | 1 | 99.3 | 74.3 | inactive |
| Gm5148 | 2 | 69.4 | 79.3 | inactive |
| Gm5148 | 3 | 63 | 57.9 | inactive |
